Measurements taken from the supplement of paper PMC10338343.
± gives the standard deviation. This is a selection; strong and weak results do not stand in their true shares. The uncertainty is large for many entries.

System: MIWI (PIWIL1) piRISC loaded with L1MC piRNA (30 nt)
Assay: pre-steady-state target cleavage rate (min^-1); MIWI and MILI are mouse PIWI proteins and EfPiwi is from a freshwater sponge; tags in brackets are library labels; higher = faster piRNA-guided slicing of the target
Conditions: guide: L1MC piRNA 5'p-UAACUAAAUACUAUGCAAGCUGUAGGUCCU
Method in brief: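 Cleave-'n-Seq reactions paired 0.1 nM transcribed, DNA-blocked target RNA library with 1 nM active affinity-purified piRISC holding one synthetic guide, plus or minus 500 nM GTSF1 partner protein, in HEPES–potassium acetate buffer at 33 °C for 0–8 or 0–960 min. After sequencing of uncleaved targets and normalisation to depth and weakly complementary targets, the pre-steady-state cleavage rate was taken from a burst-and-steady-state fit. Three trials were pooled, and k3 was capped at 0.0001 min^-1.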

[1] = auxiliary factor: none (no GTSF1)
[2] = auxiliary factor: 500 nM mouse GTSF1

Row | Sequence | pre-steady-state target cleavage rate [1] | pre-steady-state target cleavage rate [2]
1 | AGGACCUACAGCUUGCAUAGUUAAUACAAA | 0.00127 ± 0.0073 | –
2 | UCGACCUACAGCUUGCAUAGCUAUUUAGUUA | 0.00227 ± 0.0041 | –
3 | UCCACCUACAGCUUGCAUAGUAUAAUGAAA | 0.00146 ± 0.0047 | –
4 | UCGACCUACAGCUUGCAUAGAUUUAGUUA | 0.00127 ± 0.0054 | –
5 | AGCUGCUACAGCUUGCAUAGUAUUUUCAAA | 0.00144 ± 0.0043 | –
6 | UCCUGGAUGUCGAAGCAUAGUAUAUAGUUA | 0.00066 ± 0.0091 | –
7 | UCCACCAACAGCUUGCAUAGUAUUUUCAAA | 0.00226 ± 0.0039 | –
8 | AGGUCCUACAGCUUGCAAAGUAUUUAGUUA | – | 1.35 ± 0.043
9 | UCCUGGAACAGCUUGCUAUCAUAAAUCAAA [g15:g23:cont:t1A] | 0.00059 ± 0.011 | –
10 | UCCACCUACAGCUUGCAUAGAUUUUAGAAA | 0.000331 ± 0.011 | –
11 | UGGACGUACAGCUUGCAUAGUAAUUAGUUA | 0.0371 ± 0.0089 | 0.725 ± 0.048
12 | UCCACCUACAGCUUAGCAUAGUAUUUAGUUA | 0.0144 ± 0.0034 | 1.02 ± 0.03
13 | AGGACGAUCAGCUUGCAUAGUAUUUAGUAA | 0.0692 ± 0.015 | 1.02 ± 0.12
14 | UCCACCUACAGCUUGCAUAAUAUUUAGUUA | 0.0203 ± 0.0032 | 0.552 ± 0.049
15 | UGGACGCUACAGCUUGCAUAGUAUUUAGUUA | 0.0759 ± 0.013 | 1.15 ± 0.076
16 | UGGACGUACAGCUUGCUUAGUAUUUAGUUA | 0.0454 ± 0.0082 | 1.37 ± 0.069
17 | UCCUGGAUGUCGAACCAUUGUUUUUAGUUA | 0.000364 ± 0.013 | 0.000264 ± 0.02
18 | AGGCCUACAGCUUGCAUAGUAUUUAGUUA | 0.107 ± 0.019 | 1.41 ± 0.075
19 | UCCUGGAUGUCGAUGCAUACAUAAAUCAAA [g12:g17:cont:t1A] | 0.000111 ± 0.033 | –
20 | UGGACCUACAGCUUGCAAUAGUAUUUAGUUA | 0.00192 ± 0.0039 | 0.0655 ± 0.011
21 | UCCACGUACAGCUUGCAAAGUAUUUAGUUA | 0.0439 ± 0.009 | 1.19 ± 0.054
22 | UGGUGGUACAGCUUGCAUAGUAUUUUCAAA | 0.00189 ± 0.0034 | –

Full records from above:
UGGACGUACAGCUUGCAUAGUAAUUAGUUA in the list: pre-steady-state target cleavage rate [1]: 0.0371 ± 0.0089; pre-steady-state target cleavage rate [2]: 0.725 ± 0.048
AGGUCCUACAGCUUGCAAAGUAUUUAGUUA in the list: pre-steady-state target cleavage rate [2]: 1.35 ± 0.043
UCCACCUACAGCUUGCAUAAUAUUUAGUUA in the list: pre-steady-state target cleavage rate [1]: 0.0203 ± 0.0032; pre-steady-state target cleavage rate [2]: 0.552 ± 0.049
UGGACCUACAGCUUGCAAUAGUAUUUAGUUA in the list: pre-steady-state target cleavage rate [1]: 0.00192 ± 0.0039; pre-steady-state target cleavage rate [2]: 0.0655 ± 0.011

Continuation.

Row | Sequence | pre-steady-state target cleavage rate [1] | pre-steady-state target cleavage rate [2]
23 | AGGACCUACACCUUGGAUAGUAUUUAGUUA | 0.0497 ± 0.0086 | 0.817 ± 0.061
24 | UGGACCUACAGCUUGCAUAGUAUUUAGUUG [g2:g29:cont:t1G] | 0.0555 ± 0.01 | 0.456 ± 0.037
25 | AGCACCUACAGCUUGGAUAGUAUUUAGUUA | 0.0433 ± 0.0065 | 0.99 ± 0.049
26 | UCGACCUACACGUUGCAUAGUAUUUACAAA | 0.00149 ± 0.004 | –
27 | UCCUGGAUGAGCUUGACAUAGUAUUUAGUUA | 0.00329 ± 0.0037 | –
28 | UCGACCUACAGCUUGCAUAGUAUUUAGUA | 0.0159 ± 0.0051 | 0.778 ± 0.039
29 | UCCUGGAUGUGCUUGAUAGUAUUUAGUUA | 0.00142 ± 0.0048 | 0.00346 ± 0.0047
30 | UCGACCUACAGCUUGCAUAGUAUUUAGUUA [g2:g28:cont:t1A] | 0.0936 ± 0.017 | 1.56 ± 0.056
31 | UCCUGGAUGUCGAUGCAUUGUAUUUUGUUA | 0.000351 ± 0.02 | 0.000194 ± 0.045
32 | UGGUCCUACUGCUUGCAUAGUAUUUAGUUA | 0.0687 ± 0.01 | 1.22 ± 0.05
33 | UCGACCAACAGCUUGGAUAGUAUUUAGUUA | 0.0693 ± 0.011 | 1.67 ± 0.045
34 | UCCUGGAUGUCCAUGCAUAGUAUAUAGUUA | 0.00129 ± 0.0052 | 0.00278 ± 0.0058
35 | UGGACCUACAGCUUGGAUAGUAUUUAGUAA | 0.0355 ± 0.006 | 0.851 ± 0.062
36 | UGGACCUACCAGCUUGCAUAGUAUUUAGUUA | 0.0599 ± 0.013 | 1.25 ± 0.1
37 | UGGACCUACAGCUUGCAUAGUAUUAACAAA | 0.00236 ± 0.0032 | –
38 | UCCACCUACAGCUUGCUUAGUAUAUAGUUA | 0.0111 ± 0.0025 | 0.357 ± 0.027
39 | UGGACCUACAGCAUCCAUAGUAUUUAGUUA | 0.00273 ± 0.002 | 0.102 ± 0.017
40 | UGCUGCUACAGCUUGCAUAGUAUUUACAAA | 0.00236 ± 0.0024 | –
41 | AGGACCAACAGCUUGCAUAGUAUUUAGUUA | 0.122 ± 0.021 | 1.4 ± 0.05
42 | UCGACCUACAGCUACCAUAGUAUUUACAAA | 0.000317 ± 0.0088 | –
43 | UCCUGGAUGUGCUUGCAUUGUUUUUAGUUA | 0.00283 ± 0.004 | 0.0048 ± 0.0031
44 | AGGACCUACAGGUAGCAUAGUAUUUAGUUA | 0.00995 ± 0.0022 | 1.04 ± 0.054

Row | Sequence | pre-steady-state target cleavage rate [1] | pre-steady-state target cleavage rate [2]
45 | AGGACCUACAGCUUGCAUAGUAAAAACAAA | 0.00112 ± 0.0069 | 0.268 ± 0.068
46 | UCCUCCUACAGCUUGCAUUCAAUUUAGUUA | 0.00141 ± 0.0051 | –
47 | UCCUGGAUGAGCUUGCUAUGUAUUUAGUAA | 0.000947 ± 0.0056 | 0.00255 ± 0.0049
48 | UCCACCUACAGCUUCGUUAGUAUUUAGAAA | 0.000239 ± 0.012 | 0.00242 ± 0.0056
49 | UGGACCUACAGCUUGCAUAGUAUUUAGUUC [g2:g29:cont:t1C] | 0.0625 ± 0.012 | 1.14 ± 0.068
50 | UCGACCAACUGCUUGCAUAGUAUUUAGUUA | 0.0724 ± 0.012 | 1.43 ± 0.041
51 | UGGACCUACAGCUUGGUAAGUAUUUAGAAA | 0.000511 ± 0.0069 | 0.000336 ± 0.013
52 | UGGACCUACAGCUUGCAUACAUUUUAGUAA | 0.000255 ± 0.011 | 0.00226 ± 0.0047
53 | ACGACCUACAGCUUGGAUAGUAUUUAGUUA | 0.0728 ± 0.011 | 1.68 ± 0.067
54 | UCGACCUACACCUUGCAUAGUAUUUACUUA | 0.0244 ± 0.0036 | 0.254 ± 0.034
55 | UGGACCUACAGCUUGCAUACAUUUUUCAAA | 0.000209 ± 0.012 | 0.00119 ± 0.0057
56 | UCGAGCUUCAGCUUGCAUAGUAUUUAGUUA | 0.0555 ± 0.0099 | 1.12 ± 0.046
57 | UCGACCUUCAGCUUGCAAAGUAUUUAGUUA | 0.0401 ± 0.0087 | 1.33 ± 0.045
58 | UCGACCUACAGGUUGCAUAGUAUUUACAAA | 0.00187 ± 0.0033 | 0.183 ± 0.026
59 | AGCACCUACAGCAUGCAUAGUAUUUAGUUA | 0.0663 ± 0.022 | 1.02 ± 0.13
60 | ACGACCAACAGCUUGCAUAGUAUUUAGUUA | 0.0972 ± 0.018 | 1.64 ± 0.055
61 | UCCACCUACAACUUGCAUAGUAUUUAGUUA | 0.0505 ± 0.0067 | 0.869 ± 0.025
62 | UGGACCUACAGCUUGCAUACUAUUUUCAAA | 0.00168 ± 0.0034 | 0.0881 ± 0.021
63 | AGGACCUAGAGCUUGCAUAGUAUUUUCAAA | 0.00187 ± 0.0051 | 0.0396 ± 0.013
64 | UGGACCUACAGCUUGCAUAGUAUUUCAGUUA | 0.0318 ± 0.0065 | 0.468 ± 0.06
